Results are given in words; binding and its absence hold for the method and conditions named. Binding seen in cells or lysates may run through a third protein. Some entries that bind do so weakly or less than the wild type. Where a sequence is shown, tags or fusion partners need not be part of it.

The target in this experiment is T1, calcineurin B homologous protein isoform 1 (CHP1), FLAG-tagged (human) (UniProt Q99653).
T1 sequence: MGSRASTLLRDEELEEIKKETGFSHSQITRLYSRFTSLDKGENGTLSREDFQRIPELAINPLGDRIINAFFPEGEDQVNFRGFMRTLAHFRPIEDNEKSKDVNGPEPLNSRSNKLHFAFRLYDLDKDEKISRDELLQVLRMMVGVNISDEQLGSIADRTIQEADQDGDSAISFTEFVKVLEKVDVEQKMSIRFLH
Nature of the experiment: co-IP; HEK293T cells transfected with FLAG-CHP1, lysed 48 h later in TNE buffer (10 mM Tris pH 8.0, 150 mM NaCl, 1 mM EDTA, 1% NP-40, 10% glycerol); anti-FLAG magnetic beads overnight at 4 °C; immunoblot with anti-FLAG and anti-SLC38A1.

B1: solute carrier family 38 member 1 (SLC38A1) (protein, UniProt Q9H2H9 1-487)
chain: MMHFKSGLELTELQNMTVPEDDNISNDSNDFTEVENGQINSKFISDRESRRSLTNSHLEKKKCDEYIPGTTSLGMSVFNLSNAIMGSGILGLAFALANTGILLFLVLLTSVTLLSIYSINLLLICSKETGCMVYEKLGEQVFGTTGKFVIFGATSLQNTGAMLSYLFIVKNELPSAIKFLMGKEETFSAWYVDGRVLVVIVTFGIILPLCLLKNLGYLGYTSGFSLSCMVFFLIVVIYKKFQIPCIVPELNSTISANSTNADTCTPKYVTFNSKTVYALPTIAFAFVCHPSVLPIYSELKDRSQKKMQMVSNISFFAMFVMYFLTAIFGYLTFYDNVQSDLLHKYQSKDDILILTVRLAVIVAVILTVPVLFFTVRSSLFELAKKTKFNLCRHTVVTCILLVVINLLVIFIPSMKDIFGVVGVTSANMLIFILPSSLYLKITDQDGDKGTQRIWAALFLGLGVLFSLVSIPLVIYDWACSSSSDEGH
Take B1: the binding entry is reported as “binds”.
